The source of these data is paper PMC9107765.

Amino acid sequences for entries named in this document (tags omitted).
UniProt Q9H0F5: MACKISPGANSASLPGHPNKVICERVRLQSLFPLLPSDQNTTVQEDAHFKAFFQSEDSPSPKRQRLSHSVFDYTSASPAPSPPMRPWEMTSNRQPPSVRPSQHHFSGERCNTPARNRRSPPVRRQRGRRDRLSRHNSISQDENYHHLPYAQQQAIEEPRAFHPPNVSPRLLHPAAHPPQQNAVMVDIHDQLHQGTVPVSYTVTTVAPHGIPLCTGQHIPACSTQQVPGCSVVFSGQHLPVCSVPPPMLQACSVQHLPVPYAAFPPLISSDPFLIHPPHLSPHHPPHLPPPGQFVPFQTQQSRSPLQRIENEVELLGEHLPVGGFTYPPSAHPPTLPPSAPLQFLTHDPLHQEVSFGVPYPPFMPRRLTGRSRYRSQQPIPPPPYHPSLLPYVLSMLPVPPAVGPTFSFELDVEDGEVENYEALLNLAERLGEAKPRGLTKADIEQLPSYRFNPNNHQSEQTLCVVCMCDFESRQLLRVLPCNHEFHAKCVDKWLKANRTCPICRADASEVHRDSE
UniProt O43707: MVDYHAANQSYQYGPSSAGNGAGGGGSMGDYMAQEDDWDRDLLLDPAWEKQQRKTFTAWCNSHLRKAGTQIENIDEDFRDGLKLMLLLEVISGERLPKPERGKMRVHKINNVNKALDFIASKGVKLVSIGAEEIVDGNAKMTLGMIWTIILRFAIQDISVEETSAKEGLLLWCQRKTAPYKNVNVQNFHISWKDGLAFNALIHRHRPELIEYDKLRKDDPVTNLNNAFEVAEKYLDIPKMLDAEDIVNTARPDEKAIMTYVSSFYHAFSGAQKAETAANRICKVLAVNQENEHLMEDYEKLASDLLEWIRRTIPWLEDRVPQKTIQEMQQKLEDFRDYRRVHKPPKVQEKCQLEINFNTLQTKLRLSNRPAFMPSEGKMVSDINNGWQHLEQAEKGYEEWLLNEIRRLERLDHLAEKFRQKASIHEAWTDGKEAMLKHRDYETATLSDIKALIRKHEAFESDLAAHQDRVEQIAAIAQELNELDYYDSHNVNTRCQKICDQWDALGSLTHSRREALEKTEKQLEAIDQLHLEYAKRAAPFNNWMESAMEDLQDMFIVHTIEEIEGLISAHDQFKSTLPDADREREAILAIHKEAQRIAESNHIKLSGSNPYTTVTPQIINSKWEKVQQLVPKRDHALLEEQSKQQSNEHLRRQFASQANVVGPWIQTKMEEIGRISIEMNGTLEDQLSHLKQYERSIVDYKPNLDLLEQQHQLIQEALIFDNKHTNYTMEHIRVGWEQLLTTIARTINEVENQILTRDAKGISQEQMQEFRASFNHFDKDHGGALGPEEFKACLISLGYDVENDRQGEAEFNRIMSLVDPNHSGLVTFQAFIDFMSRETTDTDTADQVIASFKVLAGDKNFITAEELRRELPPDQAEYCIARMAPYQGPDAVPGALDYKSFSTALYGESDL

No constants are given. Whether binding was seen depends on the method and setting. Binding seen in cells or lysates may run through a third protein. Here binding means that the protein was enriched with, or labelled near, the bait; the list need not be complete.

The assay has as its target RNF38 (ring finger protein 38) (UniProt Q9H0F5). As to the kind of experiment: affinity purification with mass spectrometry; Flag-tagged RNF38 overexpressed in NPC cells (SUNE-1, CNE-2); RIPA lysate on ANTI-FLAG M2 affinity gel overnight at 4 °C, washed with TBS, eluted with 1% TFA, LC-MS/MS; compared to control cells.

As to “ACTN4 (Actinin Alpha 4) (from UniProt O43707 1-911)”, the binding entry is “binds”.
